# From the supplement of paper PMC4604168 (melanoma cell lines)
# Some of the results follow. Single values are uncertain, as repeats are few or missing.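 Cells were imaged in 1,536-well plates, and nuclei stained with an antibody against cleaved PARP were counted against all DNA-stained nuclei to give the apoptosis fraction. Screening doses were chosen to leave most cells alive, and resting and induced cleaved-PARP levels differ strongly between cell lines.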
# Columns and labels:
# Test in all cases: cleaved PARP positive nuclei fraction relative to DMSO control; melanoma cells; higher = more apoptosis
# Conditions in all cases: library dose: low library concentration; 72 h
# [1] = system: MZ2-MEL
# [2] = system: MeWo
# [3] = system: RPMI7951
# [4] = system: RVH-421
# [5] = system: SkMel28
# [6] = system: SkMel2
# [7] = system: SkMel30
# [8] = system: SkMel5
# [9] = system: UACC257
# [10] = system: UACC62
SMILES,cleaved PARP positive nuclei fraction [1],cleaved PARP positive nuclei fraction [2],cleaved PARP positive nuclei fraction [3],cleaved PARP positive nuclei fraction [4],cleaved PARP positive nuclei fraction [5],cleaved PARP positive nuclei fraction [6],cleaved PARP positive nuclei fraction [7],cleaved PARP positive nuclei fraction [8],cleaved PARP positive nuclei fraction [9],cleaved PARP positive nuclei fraction [10]
"Cc1ccc(Nc2nccc(N(C)c3ccc4c(C)n(C)nc4c3)n2)cc1S(N)(=O)=O [Pazopanib] + O=C(Oc1ccc([N+](=O)[O-])cc1)N1CCC(C(O)(c2ccc3c(c2)OCO3)c2ccc3c(c2)OCO3)CC1 [JZL184] (first compound 0.4 µM, partner dose 1 µM)",87.7%,41.4%,92.8%,116%,109%,76.5%,63.7%,44.3%,79%,129%
"N.N.[Cl][Pt][Cl] [cisplatin] + O=C(Nc1cccc(Cl)c1)Nc1ncc(CCNc2ncnc3ccsc23)s1 [SNS314] (first compound 1.6 µM, partner dose 0.0008 µM)",115%,126%,116%,93.3%,51.5%,93.8%,50.3%,132%,77.2%,106%
"Cn1cc(C2=C(c3cn(C4CCN(Cc5ccccn5)CC4)c4ccccc34)C(=O)NC2=O)c2ccccc21 [Enzastaurin] + Cc1cc(SCc2sc(-c3ccc(C(F)(F)F)c(F)c3)nc2C)ccc1OCC(=O)O [GW0742] (first compound 0.8 µM, partner dose 2 µM)",82.9%,62.4%,40.6%,28.2%,52.6%,184%,20%,75.3%,74.7%,83.6%
"CS(=O)(=O)c1ccc(C(=O)Nc2ccc(Cl)c(-c3ccccn3)c2)c(Cl)c1 [vismodegib] + C/C(O)=C(\C#N)C(=O)Nc1cc(Br)ccc1Br [LFM-A13] (first compound 1 µM, partner dose 2 µM)",91.5%,60.4%,41.3%,79.8%,87.8%,96.2%,60.2%,33.6%,163%,108%
"C[As](C)SC[C@H](NC(=O)CC[C@H](N)C(=O)O)C(=O)NCC(=O)O [Darinaparsin] + O=C(Nc1cccc(Cl)c1)Nc1ncc(CCNc2ncnc3ccsc23)s1 [SNS314] (first compound 0.4 µM, partner dose 0.0008 µM)",73.3%,478%,51.6%,47.4%,88.9%,84.9%,89.2%,45.5%,75.8%,150%
"Cn1cc(C2=C(c3cn(C4CCN(Cc5ccccn5)CC4)c4ccccc34)C(=O)NC2=O)c2ccccc21 [Enzastaurin] + COc1cc(Nc2ncc(F)c(Nc3ccc4c(n3)NC(=O)C(C)(C)O4)n2)cc(OC)c1OC [Tamatinib] (first compound 0.8 µM, partner dose 0.4 µM)",93.2%,76.3%,378%,32.1%,126%,277%,72.1%,153%,123%,151%
"Cn1cc(C2=C(c3cn(C4CCN(Cc5ccccn5)CC4)c4ccccc34)C(=O)NC2=O)c2ccccc21 [Enzastaurin] + O=C1NC(=O)/C(=C/c2ccc(-c3ccc(F)cc3O)o2)S1 [AS252424] (first compound 0.8 µM, partner dose 1 µM)",71.9%,204%,64.2%,332%,84.1%,175%,27.4%,73.7%,135%,89.5%
"C[C@@H](N)c1ccc(C(=O)Nc2ccnc3[nH]ccc23)cc1 + Cc1cc(SCc2sc(-c3ccc(C(F)(F)F)c(F)c3)nc2C)ccc1OCC(=O)O [GW0742] (first compound 0.4 µM, partner dose 2 µM)",558%,94.4%,446%,231%,192%,131%,117%,282%,180%,937%
"C=C(c1ccc(C(=O)O)cc1)c1cc2c(cc1C)C(C)(C)CCC2(C)C [Bexarotene] + Cc1cc(SCc2sc(-c3ccc(C(F)(F)F)c(F)c3)nc2C)ccc1OCC(=O)O [GW0742] (first compound 2 µM, partner dose 2 µM)",151%,26.3%,173%,173%,195%,204%,211%,164%,30.5%,79.4%
"OCc1c[nH]c2ccccc12 [Indole-3-carbinol] + Cc1cc(SCc2sc(-c3ccc(C(F)(F)F)c(F)c3)nc2C)ccc1OCC(=O)O [GW0742] (first compound 0.8 µM, partner dose 2 µM)",151%,29.2%,295%,131%,179%,88.4%,131%,64.5%,81.1%,117%
"N.N.[Cl][Pt][Cl] [cisplatin] + COc1cc(Nc2ncc(F)c(Nc3ccc4c(n3)NC(=O)C(C)(C)O4)n2)cc(OC)c1OC [Tamatinib] (first compound 1.6 µM, partner dose 0.4 µM)",62.4%,106%,53.2%,150%,102%,109%,79.7%,41.7%,136%,78.6%

# In another format: results already given
SMILES	cleaved PARP positive nuclei fraction [1]	cleaved PARP positive nuclei fraction [2]	cleaved PARP positive nuclei fraction [3]	cleaved PARP positive nuclei fraction [4]	cleaved PARP positive nuclei fraction [5]	cleaved PARP positive nuclei fraction [6]	cleaved PARP positive nuclei fraction [7]	cleaved PARP positive nuclei fraction [8]	cleaved PARP positive nuclei fraction [9]	cleaved PARP positive nuclei fraction [10]
Cc1ccc(Nc2nccc(N(C)c3ccc4c(C)n(C)nc4c3)n2)cc1S(N)(=O)=O [Pazopanib] + O=C(Oc1ccc([N+](=O)[O-])cc1)N1CCC(C(O)(c2ccc3c(c2)OCO3)c2ccc3c(c2)OCO3)CC1 [JZL184] (first compound 0.4 µM, partner dose 1 µM)	87.7%	41.4%	92.8%	116%	109%	76.5%	63.7%	44.3%	79%	129%
N.N.[Cl][Pt][Cl] [cisplatin] + O=C(Nc1cccc(Cl)c1)Nc1ncc(CCNc2ncnc3ccsc23)s1 [SNS314] (first compound 1.6 µM, partner dose 0.0008 µM)	115%	126%	116%	93.3%	51.5%	93.8%	50.3%	132%	77.2%	106%
N.N.[Cl][Pt][Cl] [cisplatin] + COc1cc(Nc2ncc(F)c(Nc3ccc4c(n3)NC(=O)C(C)(C)O4)n2)cc(OC)c1OC [Tamatinib] (first compound 1.6 µM, partner dose 0.4 µM)	62.4%	106%	53.2%	150%	102%	109%	79.7%	41.7%	136%	78.6%
